Where two headings read alike, the source gives them in different places. These are yes or no findings as the source states them, for the method shown. Binding seen in cells or lysates may run through a third protein. These calls come from enrichment with a bait or labelling near it, and not all partners need be listed.

Amino acid sequences for entries named in this document (tags omitted).
UniProt P04150: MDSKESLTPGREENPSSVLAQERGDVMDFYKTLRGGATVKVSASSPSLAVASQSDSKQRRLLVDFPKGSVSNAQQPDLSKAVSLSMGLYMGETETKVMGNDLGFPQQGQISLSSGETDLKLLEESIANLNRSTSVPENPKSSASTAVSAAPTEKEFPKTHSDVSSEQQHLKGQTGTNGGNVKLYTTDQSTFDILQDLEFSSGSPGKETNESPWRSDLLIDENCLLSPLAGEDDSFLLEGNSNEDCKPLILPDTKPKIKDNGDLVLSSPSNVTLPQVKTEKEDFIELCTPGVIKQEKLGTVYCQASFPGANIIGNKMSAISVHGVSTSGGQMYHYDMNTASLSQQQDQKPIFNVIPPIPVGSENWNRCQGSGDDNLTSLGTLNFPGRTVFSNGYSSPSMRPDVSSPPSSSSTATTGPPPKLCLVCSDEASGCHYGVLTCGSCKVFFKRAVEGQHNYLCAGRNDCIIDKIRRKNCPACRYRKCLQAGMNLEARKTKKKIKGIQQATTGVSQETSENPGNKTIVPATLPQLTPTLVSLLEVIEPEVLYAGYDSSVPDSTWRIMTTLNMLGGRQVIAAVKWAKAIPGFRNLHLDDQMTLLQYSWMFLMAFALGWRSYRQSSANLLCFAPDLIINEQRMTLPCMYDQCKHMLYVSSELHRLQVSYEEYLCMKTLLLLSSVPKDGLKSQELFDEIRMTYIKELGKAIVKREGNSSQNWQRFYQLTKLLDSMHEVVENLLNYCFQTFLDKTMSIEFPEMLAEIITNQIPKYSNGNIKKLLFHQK
UniProt Q9GZV5: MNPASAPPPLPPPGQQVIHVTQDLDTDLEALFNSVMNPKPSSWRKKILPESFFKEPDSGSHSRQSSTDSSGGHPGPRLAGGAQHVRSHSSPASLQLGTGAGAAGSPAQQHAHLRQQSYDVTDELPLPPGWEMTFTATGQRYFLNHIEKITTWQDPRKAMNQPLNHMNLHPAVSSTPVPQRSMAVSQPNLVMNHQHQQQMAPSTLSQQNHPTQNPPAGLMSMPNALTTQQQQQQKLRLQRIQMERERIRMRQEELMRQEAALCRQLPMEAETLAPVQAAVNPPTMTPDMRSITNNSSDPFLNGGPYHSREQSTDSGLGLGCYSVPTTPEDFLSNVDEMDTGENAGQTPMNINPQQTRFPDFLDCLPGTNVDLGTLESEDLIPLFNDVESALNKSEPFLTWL
UniProt P23771: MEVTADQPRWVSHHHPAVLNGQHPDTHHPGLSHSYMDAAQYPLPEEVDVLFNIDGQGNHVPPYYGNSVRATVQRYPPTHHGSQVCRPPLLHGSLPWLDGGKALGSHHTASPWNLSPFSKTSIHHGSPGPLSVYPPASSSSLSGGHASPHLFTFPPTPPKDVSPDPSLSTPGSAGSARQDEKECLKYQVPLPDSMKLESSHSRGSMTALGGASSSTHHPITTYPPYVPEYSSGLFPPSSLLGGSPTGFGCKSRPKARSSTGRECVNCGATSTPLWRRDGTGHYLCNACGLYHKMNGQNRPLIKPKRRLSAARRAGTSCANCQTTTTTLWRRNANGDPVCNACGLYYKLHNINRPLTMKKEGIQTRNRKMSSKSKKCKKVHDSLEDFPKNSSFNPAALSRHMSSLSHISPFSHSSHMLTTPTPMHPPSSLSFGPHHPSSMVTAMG
UniProt Q6STE5: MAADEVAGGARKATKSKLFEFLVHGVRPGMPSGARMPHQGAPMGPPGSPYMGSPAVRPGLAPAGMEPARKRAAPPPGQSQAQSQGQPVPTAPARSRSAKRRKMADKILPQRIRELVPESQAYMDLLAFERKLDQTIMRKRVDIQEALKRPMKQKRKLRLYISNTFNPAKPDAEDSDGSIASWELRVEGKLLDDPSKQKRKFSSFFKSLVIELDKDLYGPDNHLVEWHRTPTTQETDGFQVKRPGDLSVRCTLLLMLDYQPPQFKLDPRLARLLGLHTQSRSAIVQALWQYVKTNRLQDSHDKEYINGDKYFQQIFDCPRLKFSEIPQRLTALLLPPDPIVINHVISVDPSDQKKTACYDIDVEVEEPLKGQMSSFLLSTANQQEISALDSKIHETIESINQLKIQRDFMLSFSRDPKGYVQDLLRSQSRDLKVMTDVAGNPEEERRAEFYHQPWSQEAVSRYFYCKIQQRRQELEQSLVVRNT
UniProt Q9C0K0: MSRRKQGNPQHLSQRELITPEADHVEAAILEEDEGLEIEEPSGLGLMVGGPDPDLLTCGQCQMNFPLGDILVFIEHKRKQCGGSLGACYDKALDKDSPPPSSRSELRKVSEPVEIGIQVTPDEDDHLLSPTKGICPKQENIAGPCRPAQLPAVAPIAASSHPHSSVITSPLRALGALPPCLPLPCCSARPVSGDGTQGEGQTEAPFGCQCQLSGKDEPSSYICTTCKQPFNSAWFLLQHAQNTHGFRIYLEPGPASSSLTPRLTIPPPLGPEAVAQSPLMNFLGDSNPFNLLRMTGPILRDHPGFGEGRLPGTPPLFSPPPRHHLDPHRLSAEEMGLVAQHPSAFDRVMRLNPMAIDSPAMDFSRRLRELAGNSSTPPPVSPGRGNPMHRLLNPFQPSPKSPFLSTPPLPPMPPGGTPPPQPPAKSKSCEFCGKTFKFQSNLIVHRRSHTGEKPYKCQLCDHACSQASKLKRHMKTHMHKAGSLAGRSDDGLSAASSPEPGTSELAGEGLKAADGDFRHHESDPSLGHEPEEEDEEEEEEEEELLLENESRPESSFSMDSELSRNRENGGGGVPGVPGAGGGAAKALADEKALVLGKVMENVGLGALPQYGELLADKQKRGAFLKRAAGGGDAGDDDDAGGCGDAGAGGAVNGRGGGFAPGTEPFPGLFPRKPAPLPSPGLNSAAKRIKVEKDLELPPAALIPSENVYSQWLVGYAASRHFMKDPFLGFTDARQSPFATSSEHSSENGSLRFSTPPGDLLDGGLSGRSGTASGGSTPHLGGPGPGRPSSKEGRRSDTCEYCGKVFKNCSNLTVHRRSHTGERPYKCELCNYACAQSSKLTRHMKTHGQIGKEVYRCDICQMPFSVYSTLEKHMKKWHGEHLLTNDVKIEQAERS
UniProt Q9UKT9: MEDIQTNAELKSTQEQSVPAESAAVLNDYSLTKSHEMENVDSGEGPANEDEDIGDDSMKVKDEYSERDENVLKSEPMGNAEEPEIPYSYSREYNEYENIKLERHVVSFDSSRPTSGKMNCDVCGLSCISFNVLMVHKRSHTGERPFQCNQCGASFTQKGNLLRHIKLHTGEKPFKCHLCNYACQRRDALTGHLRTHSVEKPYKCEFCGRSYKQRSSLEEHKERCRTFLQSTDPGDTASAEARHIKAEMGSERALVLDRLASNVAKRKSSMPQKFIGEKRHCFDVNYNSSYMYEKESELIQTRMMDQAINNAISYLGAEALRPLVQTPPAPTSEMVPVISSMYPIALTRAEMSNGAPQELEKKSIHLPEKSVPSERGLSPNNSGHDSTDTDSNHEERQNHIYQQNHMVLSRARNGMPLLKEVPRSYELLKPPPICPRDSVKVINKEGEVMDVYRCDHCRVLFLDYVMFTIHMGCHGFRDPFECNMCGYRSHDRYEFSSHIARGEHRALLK
UniProt P03372: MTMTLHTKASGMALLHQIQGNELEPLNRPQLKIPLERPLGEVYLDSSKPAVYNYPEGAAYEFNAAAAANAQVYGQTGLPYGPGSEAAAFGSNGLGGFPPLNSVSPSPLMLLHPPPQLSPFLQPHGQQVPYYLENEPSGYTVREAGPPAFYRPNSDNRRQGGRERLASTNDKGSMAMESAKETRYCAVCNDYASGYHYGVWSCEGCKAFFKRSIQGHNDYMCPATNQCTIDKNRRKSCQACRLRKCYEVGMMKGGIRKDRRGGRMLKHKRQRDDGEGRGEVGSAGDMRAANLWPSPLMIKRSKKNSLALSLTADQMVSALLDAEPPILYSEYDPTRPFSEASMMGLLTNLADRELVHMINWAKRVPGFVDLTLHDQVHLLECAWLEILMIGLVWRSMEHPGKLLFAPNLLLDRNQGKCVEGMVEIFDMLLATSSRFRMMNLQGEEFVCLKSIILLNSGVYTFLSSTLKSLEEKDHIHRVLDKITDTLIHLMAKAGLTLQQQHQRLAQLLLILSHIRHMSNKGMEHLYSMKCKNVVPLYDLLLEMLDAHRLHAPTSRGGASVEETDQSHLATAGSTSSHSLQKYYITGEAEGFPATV
UniProt Q92922: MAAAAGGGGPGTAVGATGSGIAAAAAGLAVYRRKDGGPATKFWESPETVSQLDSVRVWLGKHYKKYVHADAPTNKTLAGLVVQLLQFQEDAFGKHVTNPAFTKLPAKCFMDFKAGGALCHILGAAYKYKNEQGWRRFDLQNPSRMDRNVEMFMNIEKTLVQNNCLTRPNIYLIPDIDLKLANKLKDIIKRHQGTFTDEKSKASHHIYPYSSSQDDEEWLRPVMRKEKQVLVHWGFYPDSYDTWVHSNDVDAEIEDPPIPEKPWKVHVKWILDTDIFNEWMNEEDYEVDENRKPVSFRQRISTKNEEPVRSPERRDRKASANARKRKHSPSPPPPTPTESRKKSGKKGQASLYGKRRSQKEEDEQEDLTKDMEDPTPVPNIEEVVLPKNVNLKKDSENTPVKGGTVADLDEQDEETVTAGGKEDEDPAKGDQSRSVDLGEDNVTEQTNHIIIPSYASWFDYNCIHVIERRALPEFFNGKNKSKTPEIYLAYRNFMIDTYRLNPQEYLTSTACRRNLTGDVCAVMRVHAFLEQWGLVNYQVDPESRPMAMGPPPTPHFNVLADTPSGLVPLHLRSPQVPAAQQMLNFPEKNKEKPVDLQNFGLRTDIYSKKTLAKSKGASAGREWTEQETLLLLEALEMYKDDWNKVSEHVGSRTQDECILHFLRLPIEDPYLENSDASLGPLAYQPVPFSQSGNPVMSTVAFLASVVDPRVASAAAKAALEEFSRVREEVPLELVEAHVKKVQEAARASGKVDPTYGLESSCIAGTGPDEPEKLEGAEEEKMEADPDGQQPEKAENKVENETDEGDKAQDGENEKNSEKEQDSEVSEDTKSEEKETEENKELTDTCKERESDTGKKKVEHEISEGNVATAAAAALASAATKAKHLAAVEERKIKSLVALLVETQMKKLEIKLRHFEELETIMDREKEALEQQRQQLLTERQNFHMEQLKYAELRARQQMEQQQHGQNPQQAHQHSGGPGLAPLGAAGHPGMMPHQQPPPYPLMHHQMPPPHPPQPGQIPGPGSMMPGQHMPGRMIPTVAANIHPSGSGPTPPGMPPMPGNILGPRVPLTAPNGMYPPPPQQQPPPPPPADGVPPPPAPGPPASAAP

Holding throughout (test): affinity purification with mass spectrometry
Assay [1] concerns the target glucocorticoid receptor (human (endogenous in primary human cells, human cell lines and human PDX tumours)) (UniProt P04150).
The target is the same in assay [2]. This is another data set of the same source.
For assay [3] the target is unchanged. This is another data set of the same source.
Assay [4] has the same target. This is another data set of the same source.
The target is the same in assay [5]. The source holds these as a separate data set.

On to WWTR1 (from UniProt Q9GZV5 1-400), for which, in assay [1], the binding entry is “binds”.

In the case of GATA3 (from UniProt P23771 1-443), the binding entry in assay [1] and in assay [2] was “binds” each time.

As to SMARCD3 (from UniProt Q6STE5 1-483), the binding entry in assay [1] and in assay [3] was “binds” throughout.

Turning to BCL11B (from UniProt Q9C0K0 1-894), in assay [1], the binding entry is listed as “binds”.

As for IKZF3 (from UniProt Q9UKT9 1-509), the binding entry in assay [4] and in assay [1] was “binds” throughout.

“estrogen receptor alpha (from UniProt P03372 1-595)”: the binding result in assay [1] and in assay [5] was “binds” in each case.

SMARCC1 (from UniProt Q92922 1-1105): the binding result in assay [1] was “binds”.

Regarding GREB1 (from UniProt Q4ZG55 1-1949), the binding result in assay [1] and in assay [5] was “binds” throughout.
